Assay results from publication PMC6733924.
Results are given in words; binding and its absence hold for the method and conditions named. Binding seen in cells or lysates may run through a third protein. Some entries that bind do so weakly or less than the wild type.

The chains behind the UniProt entries cited, without tags or fusion partners. Where a name states a change or a piece, a line headed by the entry shows the natural chain unless it says otherwise.
UniProt Q7Z2W7: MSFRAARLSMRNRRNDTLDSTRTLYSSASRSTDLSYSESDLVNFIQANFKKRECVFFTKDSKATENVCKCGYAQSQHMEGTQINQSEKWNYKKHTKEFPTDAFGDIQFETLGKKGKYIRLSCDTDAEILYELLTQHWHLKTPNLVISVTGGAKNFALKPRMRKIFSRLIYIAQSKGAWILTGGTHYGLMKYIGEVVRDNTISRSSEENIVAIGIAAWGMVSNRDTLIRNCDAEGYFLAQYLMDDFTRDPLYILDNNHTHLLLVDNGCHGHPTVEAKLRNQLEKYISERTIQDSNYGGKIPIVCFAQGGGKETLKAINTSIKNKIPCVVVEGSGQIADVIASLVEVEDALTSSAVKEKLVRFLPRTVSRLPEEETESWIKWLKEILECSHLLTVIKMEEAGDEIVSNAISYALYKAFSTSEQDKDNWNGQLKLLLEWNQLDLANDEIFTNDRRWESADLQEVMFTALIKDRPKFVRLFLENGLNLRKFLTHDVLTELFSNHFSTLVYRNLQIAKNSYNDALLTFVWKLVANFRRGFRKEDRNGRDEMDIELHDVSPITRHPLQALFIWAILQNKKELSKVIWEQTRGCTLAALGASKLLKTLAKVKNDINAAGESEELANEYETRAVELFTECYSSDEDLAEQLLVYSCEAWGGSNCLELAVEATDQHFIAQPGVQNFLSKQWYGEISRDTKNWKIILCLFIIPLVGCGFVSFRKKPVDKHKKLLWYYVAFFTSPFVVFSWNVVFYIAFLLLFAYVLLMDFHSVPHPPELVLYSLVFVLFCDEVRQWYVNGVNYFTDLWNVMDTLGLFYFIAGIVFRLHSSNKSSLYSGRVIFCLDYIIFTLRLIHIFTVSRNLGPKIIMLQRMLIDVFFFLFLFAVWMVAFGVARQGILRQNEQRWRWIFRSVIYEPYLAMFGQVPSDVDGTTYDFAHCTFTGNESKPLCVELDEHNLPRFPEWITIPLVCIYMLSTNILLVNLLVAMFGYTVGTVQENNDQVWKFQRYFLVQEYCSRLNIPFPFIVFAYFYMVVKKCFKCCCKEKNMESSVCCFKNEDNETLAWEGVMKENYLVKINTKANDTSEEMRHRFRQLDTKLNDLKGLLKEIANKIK
UniProt P10275: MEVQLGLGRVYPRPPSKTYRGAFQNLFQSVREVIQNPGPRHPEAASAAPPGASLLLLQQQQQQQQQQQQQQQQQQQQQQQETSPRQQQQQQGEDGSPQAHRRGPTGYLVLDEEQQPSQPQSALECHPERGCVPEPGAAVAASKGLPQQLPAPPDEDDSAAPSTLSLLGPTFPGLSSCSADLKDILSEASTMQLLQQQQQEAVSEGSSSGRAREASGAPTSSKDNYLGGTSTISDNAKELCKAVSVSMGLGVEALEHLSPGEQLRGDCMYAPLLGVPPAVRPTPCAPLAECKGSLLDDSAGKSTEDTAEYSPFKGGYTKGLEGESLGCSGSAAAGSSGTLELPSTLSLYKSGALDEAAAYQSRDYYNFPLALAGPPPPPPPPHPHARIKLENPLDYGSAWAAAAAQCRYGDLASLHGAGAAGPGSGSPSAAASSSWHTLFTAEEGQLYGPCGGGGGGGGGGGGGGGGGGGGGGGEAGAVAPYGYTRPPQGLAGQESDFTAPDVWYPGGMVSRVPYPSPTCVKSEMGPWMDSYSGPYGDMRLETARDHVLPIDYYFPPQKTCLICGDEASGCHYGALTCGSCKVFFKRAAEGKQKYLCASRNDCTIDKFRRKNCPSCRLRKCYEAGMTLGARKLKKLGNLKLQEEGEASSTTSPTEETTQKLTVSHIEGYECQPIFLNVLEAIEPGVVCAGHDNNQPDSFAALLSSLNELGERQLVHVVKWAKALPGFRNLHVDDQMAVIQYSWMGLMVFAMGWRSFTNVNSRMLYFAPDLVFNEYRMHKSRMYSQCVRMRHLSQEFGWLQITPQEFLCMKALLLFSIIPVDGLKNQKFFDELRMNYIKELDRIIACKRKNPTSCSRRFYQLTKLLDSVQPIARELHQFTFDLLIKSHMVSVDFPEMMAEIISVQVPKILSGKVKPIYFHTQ

Target: full-length his-tagged TRPM8 (UniProt Q7Z2W7)
Assay: co-IP; PC3-TRPM8 cells transfected with peGFP-AR (wild-type, 23 or Q640X); lysate (1% Triton X-100, 1% sodium deoxycholate, 150 mM NaCl) incubated overnight at 4 °C with His-tag beads in IP buffer (20 mM NaH2PO4, 150 mM NaCl, pH 8); AR detected with anti-GFP; cells treated with vehicle or 1, 10, 100 nM testosterone for 20 min (wild type: decrease by 58.2%-68.4% at 10-100 nM)

| binding | Substance |
| --- | --- |
| no binding | nuclear AR mutant ARQ640X-GFP (from UniProt P10275 1-639) (domain or fragment) |
| binds | GFP-labeled AR (wild type) (from UniProt P10275 1-920) |
